Measured values as given in PMC7862700.
Some of the results follow. The source does not settle which construct or isoform was used.

Biological target: T1, ETS1 (UniProt P14921)
T1 sequence: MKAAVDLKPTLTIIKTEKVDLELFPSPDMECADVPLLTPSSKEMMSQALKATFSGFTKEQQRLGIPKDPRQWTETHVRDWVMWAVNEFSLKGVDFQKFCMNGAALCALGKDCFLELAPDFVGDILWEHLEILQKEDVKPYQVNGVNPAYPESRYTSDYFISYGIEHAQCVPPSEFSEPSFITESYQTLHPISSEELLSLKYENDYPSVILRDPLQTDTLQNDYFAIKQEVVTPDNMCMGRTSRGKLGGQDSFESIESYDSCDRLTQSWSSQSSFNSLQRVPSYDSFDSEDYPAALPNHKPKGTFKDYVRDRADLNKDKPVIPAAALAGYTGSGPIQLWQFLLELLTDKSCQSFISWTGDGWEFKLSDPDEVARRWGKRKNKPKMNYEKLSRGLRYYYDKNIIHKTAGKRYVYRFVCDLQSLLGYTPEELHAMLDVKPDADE
Assay: DAPPL (digital affinity profiling via proximity ligation, sequencing)
Details: 10 mM Tris-HCl pH 7.5, 50 mM NaCl, 1 mM DTT, 4% glycerol, room temperature, 30 min; GST-TFs on glutathione beads, 16-mer random dsDNA library, 0.1% …; high values mean tight binding; double strand, one strand shown; scale: fold enrichment (6-mer frequency, TF over GST control)

Row | Sequence | binding signal
1 | TAGCAC | 1.1
2 | TTCAAA | 1.35
3 | ATTTAT | 1.39
4 | ATACCG | 1.09
5 | CCTCAC | 1.25
6 | GAAATG | 1.67
7 | CCGTAA | 1.12
8 | GATGGC | 1.47
9 | GCAAAA | 1.11
10 | TCTTCA | 1.25
11 | CGCCTC | 1.48
12 | ACTTAC | 1.2
13 | ATACGT | 1.12
14 | ATCGAA | 1.12
15 | GTCTAC | 1.09
16 | CACTAA | 1.21
17 | TCTAAT | 1.15
18 | TTCGAA | 1.25
19 | CCGCAC | 1.53
20 | TACTTG | 1.46

Row | Sequence | binding signal
21 | TTAGCG | 1.02
22 | TGCTGC | 1.06
23 | TCTACT | 1.4
24 | TTAAAG | 1.18
25 | CCCCGG | 1.28
26 | TCGCAA | 1.12
27 | TACCGA | 1.11
28 | ATTACG | 1.08
29 | TCTCTG | 1.61
30 | AACTTA | 1.3
31 | TAGCCC | 1.19
32 | CTAAAA | 1.15
33 | TATCCG | 2.38
34 | CGCGAC | 1.12
35 | GTAAAC | 1.26
36 | TTTCTC | 1.68
37 | ACAATA | 1.19
38 | ATCCGC | 1.83
39 | CTATTC | 1.23

Random excerpt: 2 entries already listed, in no set order.
Row | Sequence | binding signal
35 | GTAAAC | 1.26
32 | CTAAAA | 1.15
